Test results taken from paper PMC7819943, “Rice protein-binding microarrays: a tool to detect cis-acting elements near promoter regions in rice”.
This is one part of the list.

Sequences of proteins named here, by UniProt entry; tags and fusion partners are left off.
UniProt Q0JBA9, entry or part of it: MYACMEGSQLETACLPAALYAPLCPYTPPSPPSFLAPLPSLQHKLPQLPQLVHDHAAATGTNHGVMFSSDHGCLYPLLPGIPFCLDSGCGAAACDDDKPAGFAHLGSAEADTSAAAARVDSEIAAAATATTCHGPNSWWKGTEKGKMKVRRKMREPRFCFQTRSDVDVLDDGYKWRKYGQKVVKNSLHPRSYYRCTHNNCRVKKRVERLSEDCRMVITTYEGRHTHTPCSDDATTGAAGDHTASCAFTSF

What follows are sequences tested against OsWRKY34 (Oryza sativa, UniProt Q0JBA9 1-250) (assay: protein-binding microarray (RPBM); PBS, 2% BSA, 51.3 ng/ul salmon testes DNA, 50 uM zinc acetate, 200 nM TF, 25 C, 1 h; high values mean tight binding). Settings: protein: recombinant; tags: N-terminal polyhistidine and DsRed monomer fusion (pET32a); label: CyDye5-dUTP incorporated in the synthesized complementary strand; 3' TTTTT single-stranded linker to array surface; dsDNA, one strand shown.
Procedure, shortened: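 Ni–NTA purification followed expression in E. coli BL21-CodonPlus of transcription factors fused N-terminally to a polyhistidine tag and DsRed. At 200 nM in PBS with 2% BSA, salmon testes DNA and 50 µM zinc acetate, the protein was incubated for 1 h at 25 °C with a custom Agilent array that had been primer-extended with Cy5-dUTP and blocked with 2% BSA. After washing, the array was read on an Axon 4000B scanner. The binding signal is per-feature fluorescence intensity in arbitrary units.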

Row | Sequence | binding signal
1 | TGTGTTGGTTGTAAGAGCGTTTTTTTGGCGATCTCTTCTGCGGAGTCACCTAGTGCAG | 8460 fluorescence intensity (a.u.)
2 | TATCTGAGCCTGTGGCTCCATTTGTGGGCTGGGTCGAAGACGGAGTCACCTAGTGCAG | 8170 fluorescence intensity (a.u.)
3 | ATATATATATATATATATATATATATATATAGTGGAATGACGGAGTCACCTAGTGCAG | 12300 fluorescence intensity (a.u.)
4 | TATCTAAGTTCCTAACTCATCTTCTTCATTTTCCACGCGCCGGAGTCACCTAGTGCAG | 9240 fluorescence intensity (a.u.)
5 | AGCAAGTGACAGTCAGAACCCTCGAGCGTCATCAATTTCTCGGAGTCACCTAGTGCAG | 9360 fluorescence intensity (a.u.)
6 | TGTGTTTGTATTCATCGATGCCTATATAAACCGCGCGTTTCGGAGTCACCTAGTGCAG | 8710 fluorescence intensity (a.u.)
7 | ATTTGAGGCTCATTTGTCTCCGGCCCGGCCCACTTCCCTTCGGAGTCACCTAGTGCAG | 9220 fluorescence intensity (a.u.)
8 | TAACTGTGATGGTTGCTTGCTTGTTGTTTGGTCATGGTGACGGAGTCACCTAGTGCAG | 12300 fluorescence intensity (a.u.)
9 | ATGTTTTTCTTTTCTTTCTTCTTTTTTTTGTTTTTGACCTCGGAGTCACCTAGTGCAG | 11900 fluorescence intensity (a.u.)
10 | TTCAAAATGTTTGACACCATTGACTTTTTAGCATATGTTTCGGAGTCACCTAGTGCAG | 10000 fluorescence intensity (a.u.)
11 | TATCGTTTATGGATTTAACCGCAGTTTTTCTTGTCTTTATCGGAGTCACCTAGTGCAG | 9490 fluorescence intensity (a.u.)
12 | TTTTATTTTTCTTGACGCCACACACCTCTCCTCTGTTCTTCGGAGTCACCTAGTGCAG | 9520 fluorescence intensity (a.u.)
13 | AATGCAACATCTCAGTTTGCCGGGTTTTGTCTGCTCGCGCCGGAGTCACCTAGTGCAG | 10600 fluorescence intensity (a.u.)
14 | CCTACACACGCAAACTTCTAATTTTTCTGTCACATCGTTTCGGAGTCACCTAGTGCAG | 9540 fluorescence intensity (a.u.)
15 | TCCTCTTTCGCTACCTCCCGTGCCTAAATGGGCCAAATCTCGGAGTCACCTAGTGCAG | 11600 fluorescence intensity (a.u.)
16 | CCTTCGGCTCTTCGCCCCTCGCTACCTCCGATTTCCAATGCGGAGTCACCTAGTGCAG | 8280 fluorescence intensity (a.u.)
17 | TGTTATTCAACTGTTCTTGTACCACCATATGCTACTTCTTCGGAGTCACCTAGTGCAG | 9360 fluorescence intensity (a.u.)
18 | TCATGGATATGCCTCTTACAGTGGACCTTACTAGGATTCTCGGAGTCACCTAGTGCAG | 10800 fluorescence intensity (a.u.)
19 | TGATCGCCGGTATTGAGCAAGGATTGGGGTTTGGGGTAAGCGGAGTCACCTAGTGCAG | 12000 fluorescence intensity (a.u.)
20 | CACTTTGCTTGCTGGTTTTGATTTTTGGATTCCTTCCGTTCGGAGTCACCTAGTGCAG | 9500 fluorescence intensity (a.u.)
21 | CGTTCATTCCGCATCCAATGGCAGCACTGGTTCCTAGCTTCGGAGTCACCTAGTGCAG | 8110 fluorescence intensity (a.u.)
22 | CTTTTTTTTTCTTTTTCTCTTTTACGGTGTTGGGAAGGTTCGGAGTCACCTAGTGCAG | 10400 fluorescence intensity (a.u.)
23 | TGTCACTCCCGCCTCGGTAACCGGCGCGCTACCCTCGCTTCGGAGTCACCTAGTGCAG | 10400 fluorescence intensity (a.u.)
24 | CCTATCGATCTCTTGTTGTTCTTCATCGTCCTCTATATAGCGGAGTCACCTAGTGCAG | 12200 fluorescence intensity (a.u.)
25 | TCTGATTATCCTATGCCTGCCGTGTTTAAGTGGTGTGTGTCGGAGTCACCTAGTGCAG | 8660 fluorescence intensity (a.u.)
26 | ATCGTTTGAAATTCTTATGGATTGAACAATCCTATAAAAGCGGAGTCACCTAGTGCAG | 8660 fluorescence intensity (a.u.)
27 | TTGCAAACACATGTCACATAGTCTTCCCCACATTGGCTCTCGGAGTCACCTAGTGCAG | 9790 fluorescence intensity (a.u.)

Quoted from above, nos. 25–26
Row | Sequence | binding signal
25 | TCTGATTATCCTATGCCTGCCGTGTTTAAGTGGTGTGTGTCGGAGTCACCTAGTGCAG | 8660 fluorescence intensity (a.u.)
26 | ATCGTTTGAAATTCTTATGGATTGAACAATCCTATAAAAGCGGAGTCACCTAGTGCAG | 8660 fluorescence intensity (a.u.)

Reformatted as labelled records: entries from further up.
TATCTAAGTTCCTAACTCATCTTCTTCATTTTCCACGCGCCGGAGTCACCTAGTGCAG
  binding signal = 9240 fluorescence intensity (a.u.)
TCTGATTATCCTATGCCTGCCGTGTTTAAGTGGTGTGTGTCGGAGTCACCTAGTGCAG
  binding signal = 8660 fluorescence intensity (a.u.)

Remaining list, next part

Row | Sequence | binding signal
28 | GAACCGAACGATTCGCTCATCGCTTTTGTCATCATCTAACCGGAGTCACCTAGTGCAG | 10900 fluorescence intensity (a.u.)
29 | GAGGGGTGGACGGGGCTGGTGATGCTGGTGCTCATGGCGGCGGAGTCACCTAGTGCAG | 9300 fluorescence intensity (a.u.)
30 | GAGATGGGGAGGGAGGCCGGCCGGGAGAGGGAGAGAGAGGCGGAGTCACCTAGTGCAG | 8890 fluorescence intensity (a.u.)
31 | AATCCCTCTGCTATAAAATCGCTCTGCTTTACTGCTGTTTCGGAGTCACCTAGTGCAG | 11800 fluorescence intensity (a.u.)
32 | CTCACCGATCCCATCTCAATTCTCACCGCCTCACCGCGCCCGGAGTCACCTAGTGCAG | 9270 fluorescence intensity (a.u.)
33 | TCCTCTTCCTCATCCTCGACCGTGCCGCCGCCCATGACCCCGGAGTCACCTAGTGCAG | 8040 fluorescence intensity (a.u.)
34 | TTTTGGTATACTGCACTTTTGAATTTTACAACCACATCTCCGGAGTCACCTAGTGCAG | 8800 fluorescence intensity (a.u.)
35 | GTCTGGGAGCAATAGGTCGCAATCATACATGCTTTATCTTCGGAGTCACCTAGTGCAG | 9770 fluorescence intensity (a.u.)
36 | CTTCATTGATGTTGTCAGTGTTTACTAAGCACTTATTTTTCGGAGTCACCTAGTGCAG | 8070 fluorescence intensity (a.u.)
37 | CATTTCGAGCCTTACTGTTTTTATTTAGTTTTCGAGAAAACGGAGTCACCTAGTGCAG | 10800 fluorescence intensity (a.u.)
38 | CGGGTGGAGACTATTTTAATCTTATTATTATTCAGTGTGACGGAGTCACCTAGTGCAG | 10400 fluorescence intensity (a.u.)
39 | CAACATCACGGCCACGAGGTCGCCCCGTTCTTCCATGTTCCGGAGTCACCTAGTGCAG | 8140 fluorescence intensity (a.u.)
40 | CGCATCTCGTTTTCTCTTTATTTGTTTCTTCTTTCGCTTTCGGAGTCACCTAGTGCAG | 13800 fluorescence intensity (a.u.)
41 | GGTTTGGTGTTTGACATGTCACAGGGCGTTGCCGCCATTACGGAGTCACCTAGTGCAG | 8400 fluorescence intensity (a.u.)
42 | GTTGAGGTTTCCAACTCATTTTTCTCGTTTTACACATGCACGGAGTCACCTAGTGCAG | 8770 fluorescence intensity (a.u.)
43 | AAATCAATATTTTCTGGTTGTTCTTCCACCATTTTACTATCGGAGTCACCTAGTGCAG | 8900 fluorescence intensity (a.u.)
44 | TACTATTATATTCTATGCTCTGGATCTACACATATGTGCTCGGAGTCACCTAGTGCAG | 8170 fluorescence intensity (a.u.)
45 | CATTCCAGCGCACCGACCGCAACGAAATGTTTCTGCGTTCCGGAGTCACCTAGTGCAG | 8340 fluorescence intensity (a.u.)
46 | GGTTTCAAGAAAAGGAAAAGAAAAACTAAACGTAGTATAACGGAGTCACCTAGTGCAG | 11300 fluorescence intensity (a.u.)
47 | TTCGTACACTTTCTCCAGCCACAGCGCCGCCGCAATTCGCCGGAGTCACCTAGTGCAG | 9910 fluorescence intensity (a.u.)
48 | AAATCACAATTTTCTCTCGTCTACTCTTGCATACACAACACGGAGTCACCTAGTGCAG | 9460 fluorescence intensity (a.u.)
49 | GGACCATACTGTTTTCTTTCTTTTTTTTTCTCTCTCTCTCCGGAGTCACCTAGTGCAG | 10200 fluorescence intensity (a.u.)
50 | CACCCGAATTTTTGGGACTTCTTTTCCAACATGTGTCATACGGAGTCACCTAGTGCAG | 8570 fluorescence intensity (a.u.)
51 | AAAACATTTCTCTATTCGTTTCATTCTTCAAAGATGAGAGCGGAGTCACCTAGTGCAG | 8100 fluorescence intensity (a.u.)
52 | AATTTCGGAAGGGTTGGTTTAGGCAGTAATATTCTCCATTCGGAGTCACCTAGTGCAG | 8280 fluorescence intensity (a.u.)
53 | CGTTTTCTTTTTTCCATGATAAATAATGTGTTTCTACTAACGGAGTCACCTAGTGCAG | 10600 fluorescence intensity (a.u.)
54 | CTGCCACTCCCGCCATCTCTCCGTTGTCCTCTCCACCGACCGGAGTCACCTAGTGCAG | 10800 fluorescence intensity (a.u.)
